Experimental data: PubChem BioAssay AID256 (DTP/NCI, 2004)
The list is a part of this screen's results and no random one: its compounds were picked by chemical class. Not every dose and run of a compound is shown. T/C gives the treated animals as a percentage of the vehicle group. Some entries give survivors of the animals treated and no T/C: the source holds a T/C of zero for them, seemingly a mark for toxic or unscored doses. Some doses without a T/C left all or most animals alive at the check, yet need not have been tolerated: the source hardly ever lists a survival T/C far under the control, and the zero likely stands for such cases as well. Survivors were counted at the toxicity check, usually on the fifth day, unless a day is given; later deaths do not show. Schedules are NCI's codes, taken here to give the interval after Q, in days (D) or hours (H), and the number of doses after X. Some doses were run more than once; their values stand side by side, smallest first. Some metal complexes and salts are drawn in pieces, as in the source, so charges may not balance. Where survival is the endpoint, this PubChem deposit counts one and a half times the control or more as active, and values a quarter to a half above the control carry no call in these data; other NCI protocols may use other cut-offs. Some T/C values carry the count of animals alive at the toxicity check (mostly the fifth day); where neither a count nor a note follows, no animal had died by that day. Some entries show no survivor count and are marked so; the dose need not have been tolerated.

Test system: CD2F1 mice, L1210 leukemia ip, survival T/C
Assay: NCI In Vivo Anticancer Drug Screen. Data for tumor model L1210 Leukemia (intraperitoneal) in CD2F1 (CDF1) mice
Details: higher T/C = longer survival
Description: The antitumor activity of compounds was measured in mice bearing transplantable tumors. Survival or tumor size were measured and the results are expressed as the measurement made in the treated group (T) divided by the measurement made in the vehicle treated control group (C). The tumor model used in this assay is L1210 Leukemia (intraperitoneal) in CD2F1 (CDF1) mice

[1] = T/C endpoint: mean survival time, dose: 125.0 mg/kg/injection, schedule: Q01DX001 (ip), vehicle: distilled water + Tween-80
[2] = T/C endpoint: mean survival time, dose: 250.0 mg/kg/injection, schedule: Q01DX001 (ip), vehicle: distilled water + Tween-80
[3] = T/C endpoint: mean survival time, dose: 500.0 mg/kg/injection, schedule: Q01DX001 (ip), vehicle: distilled water + Tween-80
[4] = T/C endpoint: mean survival time, dose: 25.0 mg/kg/injection, schedule: Q01DX001 (ip), vehicle: DMSO
[5] = T/C endpoint: mean survival time, dose: 50.0 mg/kg/injection, schedule: Q01DX001 (ip), vehicle: DMSO
[6] = T/C endpoint: mean survival time, dose: 100.0 mg/kg/injection, schedule: Q01DX001 (ip), vehicle: DMSO
[7] = T/C endpoint: mean survival time, dose: 200.0 mg/kg/injection, schedule: Q01DX001 (ip), vehicle: DMSO
[8] = T/C endpoint: mean survival time, dose: 400.0 mg/kg/injection, schedule: Q01DX001 (ip), vehicle: DMSO
[9] = T/C endpoint: mean survival time, dose: 62.5 mg/kg/injection, schedule: Q01DX001 (ip), vehicle: other
[10] = T/C endpoint: mean survival time, dose: 125.0 mg/kg/injection, schedule: Q01DX001 (ip), vehicle: other
[11] = T/C endpoint: mean survival time, dose: 250.0 mg/kg/injection, schedule: Q01DX001 (ip), vehicle: other
[12] = T/C endpoint: mean survival time, dose: 500.0 mg/kg/injection, schedule: Q01DX001 (ip), vehicle: other
[13] = T/C endpoint: mean survival time, dose: 100.0 mg/kg/injection, schedule: Q01DX001 (ip), vehicle: saline
[14] = T/C endpoint: mean survival time, dose: 200.0 mg/kg/injection, schedule: Q01DX001 (ip), vehicle: saline
[15] = T/C endpoint: mean survival time, dose: 400.0 mg/kg/injection, schedule: Q01DX001 (ip), vehicle: saline

In the case of CC(C)CC(C)NCCO.O=[N+]([O-])c1cc([N+](=O)[O-])c(O)c([N+](=O)[O-])c1, the T/C (T/C endpoint: mean survival time, dose: 75.0 mg/kg/injection, schedule: Q01DX001 (ip), vehicle: other) is reported as 93 % of control [survivor count not shown], the T/C (T/C endpoint: mean survival time, dose: 150.0 mg/kg/injection, schedule: Q01DX001 (ip), vehicle: other) is reported as 92 % of control [survivor count not shown] and the T/C (T/C endpoint: mean survival time, dose: 300.0 mg/kg/injection, schedule: Q01DX001 (ip), vehicle: other) is reported as 89 % of control [survivor count not shown].

In the case of O=P1(N(CCCl)CCCl)OCC2CN21 (stereo not given), the T/C (T/C endpoint: mean survival time, dose: 7.8 mg/kg/injection, schedule: Q01DX001 (ip), vehicle: distilled water + Tween-80) is reported as 104 % of control, the T/C (T/C endpoint: mean survival time, dose: 15.6 mg/kg/injection, schedule: Q01DX001 (ip), vehicle: distilled water + Tween-80) is reported as 104 % of control and the T/C (T/C endpoint: mean survival time, dose: 31.3 mg/kg/injection, schedule: Q01DX001 (ip), vehicle: distilled water + Tween-80) is reported as 105 % of control. For the same compound, the T/C (T/C endpoint: mean survival time, dose: 62.5 mg/kg/injection, schedule: Q01DX001 (ip), vehicle: distilled water + Tween-80) was 98, 119, 120 % of control, the T/C [1] was 91 % of control and the survivor count [1] was 0 of 4 and 3 of 6. The T/C [2] was 95 % of control, the survivor count [2] was 0 of 4 and the T/C [3] was 106 % of control. The survivor count [3] was 0 of 4.

In the case of CCCCC(CC)CO[P+](=O)OCC(CC)CCCC (stereo not given), the T/C (T/C endpoint: mean survival time, dose: 50.0 mg/kg/injection, schedule: Q01DX009 (ip), vehicle: saline with Tween-80) is reported as 101 % of control, the T/C (T/C endpoint: mean survival time, dose: 100.0 mg/kg/injection, schedule: Q01DX009 (ip), vehicle: saline with Tween-80) is reported as 90 % of control and the survivor count (T/C endpoint: mean survival time, dose: 200.0 mg/kg/injection, schedule: Q01DX009 (ip), vehicle: saline with Tween-80) is reported as 1 of 6.

NP(=O)(OCCCO)N(CCCl)CCCl (stereo not given) was tested, and the T/C (T/C endpoint: mean survival time, dose: 12.5 mg/kg/injection, schedule: Q01DX005 (ip), vehicle: water) was 91 % of control, the T/C [4] was 95 % of control and the T/C (T/C endpoint: mean survival time, dose: 25.0 mg/kg/injection, schedule: Q01DX005 (ip), vehicle: water) was 95 % of control. For the same compound, the T/C [5] was 100 % of control, the T/C (T/C endpoint: mean survival time, dose: 50.0 mg/kg/injection, schedule: Q01DX005 (ip), vehicle: water) was 97 % of control and the T/C [6] was 93 % of control. The T/C (T/C endpoint: mean survival time, dose: 100.0 mg/kg/injection, schedule: Q01DX005 (ip), vehicle: water) was 95 % of control, the T/C [7] was 97 % of control and the T/C (T/C endpoint: mean survival time, dose: 200.0 mg/kg/injection, schedule: Q01DX005 (ip), vehicle: water) was 100 % of control. The T/C [8] was 102 % of control.

In the case of CCOC(=O)C1COP(=O)(N(CCCl)CCCl)N1 (stereo not given), the T/C [9] is reported as 99 % of control, the T/C [10] is reported as 99 % of control and the T/C (T/C endpoint: mean survival time, dose: 220.0 mg/kg/injection, schedule: Q01DX001 (ip), vehicle: other) is reported as 105 % of control. For the same compound, the T/C [11] was 106 % of control, the T/C (T/C endpoint: mean survival time, dose: 330.0 mg/kg/injection, schedule: Q01DX001 (ip), vehicle: other) was 123 % of control and the T/C [12] was 121 and 124 % of control. The T/C (T/C endpoint: mean survival time, dose: 750.0 mg/kg/injection, schedule: Q01DX001 (ip), vehicle: other) was 129 % of control.

[C-]#N.[C-]#N.[C-]#N.[C-]#N.[Ni].c1ccc([I+]c2ccccc2)cc1 was tested, and the survivor count [13] was 2 of 6, the survivor count [14] was 0 of 6 and the survivor count [15] was 0 of 6.

CN1CCCOP1(=O)N(CCCl)CCCl (stereo not given) was tested, and the T/C (T/C endpoint: mean survival time, dose: 6.25 mg/kg/injection, schedule: Q01DX009 (ip), vehicle: other) was 94 % of control, the T/C (T/C endpoint: mean survival time, dose: 12.5 mg/kg/injection, schedule: Q01DX009 (ip), vehicle: other) was 102 % of control and the T/C (T/C endpoint: mean survival time, dose: 25.0 mg/kg/injection, schedule: Q01DX009 (ip), vehicle: other) was 102 % of control. For the same compound, the T/C (T/C endpoint: mean survival time, dose: 31.3 mg/kg/injection, schedule: Q01DX001 (ip), vehicle: other) was 115 % of control, the T/C (T/C endpoint: mean survival time, dose: 50.0 mg/kg/injection, schedule: Q01DX009 (ip), vehicle: other) was 102 % of control and the T/C [9] was 98 % of control. For the same compound, the T/C (T/C endpoint: mean survival time, dose: 100.0 mg/kg/injection, schedule: Q01DX009 (ip), vehicle: other) was 108 % of control, the T/C [10] was 102 % of control and the T/C [11] was 113 % of control. The T/C [12] was 115 % of control [4 of 6 alive].

In the case of Nc1ccc(N(CCCl)CCCl)cc1, the T/C (T/C endpoint: mean survival time, dose: 0.06 mg/kg/injection, schedule: Q01DX009 (ip), vehicle: Klucel (hydroxypropylcellulose) (HPC)) is reported as 97 % of control, the T/C (T/C endpoint: mean survival time, dose: 0.13 mg/kg/injection, schedule: Q01DX009 (ip), vehicle: Klucel (hydroxypropylcellulose) (HPC)) is reported as 97 % of control and the T/C (T/C endpoint: mean survival time, dose: 0.25 mg/kg/injection, schedule: Q01DX009 (ip), vehicle: Klucel (hydroxypropylcellulose) (HPC)) is reported as 106 % of control [5 of 6 alive]. For the same compound, the T/C (T/C endpoint: mean survival time, dose: 0.5 mg/kg/injection, schedule: Q01DX009 (ip), vehicle: Klucel (hydroxypropylcellulose) (HPC)) was 101, 108, 114 % of control, the T/C (T/C endpoint: mean survival time, dose: 1.0 mg/kg/injection, schedule: Q01DX009 (ip), vehicle: Klucel (hydroxypropylcellulose) (HPC)) was 103, 106 [5 of 6 alive], 111 % of control and the T/C (T/C endpoint: mean survival time, dose: 2.0 mg/kg/injection, schedule: Q01DX009 (ip), vehicle: Klucel (hydroxypropylcellulose) (HPC)) was 114, 115 [5 of 6 alive], 129 % of control. The T/C (T/C endpoint: mean survival time, dose: 4.0 mg/kg/injection, schedule: Q01DX009 (ip), vehicle: Klucel (hydroxypropylcellulose) (HPC)) was 125 and 131 % of control and the survivor count (T/C endpoint: mean survival time, dose: 8.0 mg/kg/injection, schedule: Q01DX009 (ip), vehicle: Klucel (hydroxypropylcellulose) (HPC)) was 5 of 6 and 6 of 6.

With CCP1(=O)Nc2ccc(Cl)cc2N1 (stereo not given) the T/C [13] was 100 % of control [survivor count not shown], the T/C [14] was 111 % of control [survivor count not shown] and the T/C [15] was 109 % of control [survivor count not shown].

With ClCC[N+]1(CCCl)CCCO1 the T/C (T/C endpoint: mean survival time, dose: 33.0 mg/kg/injection, schedule: Q04DX003 (ip), vehicle: saline) was 131 % of control, the T/C (T/C endpoint: mean survival time, dose: 50.0 mg/kg/injection, schedule: Q04DX003 (ip), vehicle: saline) was 118 % of control and the T/C (T/C endpoint: mean survival time, dose: 75.0 mg/kg/injection, schedule: Q04DX003 (ip), vehicle: saline) was 98 % of control.

For O=[N+]([O-])c1cccc(O)c1[N+](=O)[O-], the T/C (T/C endpoint: mean survival time, dose: 100.0 mg/kg/injection, schedule: Q04DX003 (ip), vehicle: saline sonified) was 98 % of control, the T/C (T/C endpoint: mean survival time, dose: 200.0 mg/kg/injection, schedule: Q04DX003 (ip), vehicle: saline sonified) was 100 % of control and the survivor count (T/C endpoint: mean survival time, dose: 400.0 mg/kg/injection, schedule: Q04DX003 (ip), vehicle: saline sonified) was 5 of 6.

For NP1(=O)C=CN(C2OC(CO)C(O)C2O)C(=O)N1 (stereo not given), the T/C (T/C endpoint: median survival time, dose: 2.5 mg/kg/injection, schedule: Q01DX005 (ip), vehicle: water) was 100 % of control, the T/C (T/C endpoint: median survival time, dose: 5.0 mg/kg/injection, schedule: Q01DX005 (ip), vehicle: water) was 94 % of control and the T/C (T/C endpoint: median survival time, dose: 10.0 mg/kg/injection, schedule: Q01DX005 (ip), vehicle: water) was 92 % of control. The T/C (T/C endpoint: median survival time, dose: 20.0 mg/kg/injection, schedule: Q01DX005 (ip), vehicle: water) was 97 % of control and the T/C (T/C endpoint: median survival time, dose: 40.0 mg/kg/injection, schedule: Q01DX005 (ip), vehicle: water) was 99 % of control.

In the case of CCC(CO)NC(C)C.O=[N+]([O-])c1cc([N+](=O)[O-])c(O)c([N+](=O)[O-])c1, the T/C (T/C endpoint: mean survival time, dose: 75.0 mg/kg/injection, schedule: Q01DX001 (ip), vehicle: saline) is reported as 92 % of control [survivor count not shown] and the T/C (T/C endpoint: mean survival time, dose: 150.0 mg/kg/injection, schedule: Q01DX001 (ip), vehicle: saline) is reported as 95 % of control [survivor count not shown].

CS(=O)(=O)OCCCOP(N)(=O)N(CCCl)CCCl (stereo not given) was tested, and the T/C [4] was 101 % of control, the T/C [5] was 95 % of control and the T/C [6] was 101 % of control. For the same compound, the T/C [7] was 95 % of control and the T/C [8] was 107 % of control.
